The other results are listed elsewhere or left out. Further columns of the screen follow, without active or inactive calls. Compounds called inactive in the main read-out are mostly missing here. Words in brackets tell the shape of the fitted curve; partial curves, single points and poor fits give uncertain potencies.

This assay is described as follows: qHTS Assay for Lipid Storage Modulators in Drosophila S3 Cells.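 For cell number change: cells counted by Cell Tracker Red CMTPX staining in the red channel.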 The note with it: BODIPY lipid droplet fluorescence, 18-24 h; for cell number change: measured here: cell count max response, cells fed with added oleic acid. The procedure, abridged: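 Drosophila S3 cells loaded with oleic acid (400 uM, as added) and compounds at several concentrations; lipid droplets imaged by 488-nm laser-scanning cytometry, 500–530 nm intensity and object ratio to cell channel. Percent activity normalized to 20 uM Triacsin C.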

Setting [1] is: measured here: cell number channel AC50, cells fed with added oleic acid.
The mark [2] stands for this setting: measured here: lipid fluorescence (Fed channel) AC50, cells fed with added oleic acid.

For orientation: AC50 means the midpoint of the concentration-response curve, whichever way the signal moves. Low values mean greater potency, high ones weaker potency. As for `COc1ccc(NC(=O)CSc2n[nH]c(C)c2[N+](=O)[O-])cc1`, the cell number change was 49.9%. The AC50 under setting [1] was 13 µM [rising, partial curve].

In the case of `O=C(Nc1ccccn1)c1ccc(S(=O)(=O)N2CCCC2)cc1`, the cell number change is -0.337%. The AC50 under setting [1] was 0.731 µM [falling, single point].

For the compound `O=C(CCc1c[nH]c2ccccc12)N1CCN(S(=O)(=O)c2ccc(F)cc2)CC1`, the cell number change amounted to 92.4%. Moreover, the AC50 under setting [1] is 14.6 µM [rising, partial curve].

For `O=C(CSc1nc2[nH]ncc2c(=O)[nH]1)Nc1ccccc1`, under setting [1], the AC50 is 6.51 µM [falling, single point].

As to `COc1ccc(/C=C/C(=O)OCC(=O)Nc2ccc3c(c2)OCO3)cc1`, the cell number change was 3.96%. Also, the AC50 under setting [2] was 1.16 µM [rising, partial curve].

Turning to `CCN(CC(=O)NCc1cccs1)C(=O)CCCOc1ccccc1`, the cell number change is 34.7%. For the same compound, under setting [1], the AC50 is 25.9 µM [rising, single point].

For the compound `C=C(C)CN(CC)C(=O)CN1C(=O)NC2(CCc3ccccc32)C1=O` (configuration not stated), the cell number change was -1.76%. Besides, the AC50 under setting [2] was 16.4 µM [falling, single point].

As for `COc1ccc(NC(=O)c2nc(C)c(C3(C)CC(c4cccnc4)=NO3)s2)cc1` (configuration not stated), the cell number change came out at 12.2%. Further, the AC50 under setting [2] is 3.26 µM [rising, partial curve].

For the compound `COc1cccc(CN(C)C(=O)Cc2ccc(OC)c(S(=O)(=O)N3CCOCC3)c2)c1`, the cell number change amounted to 32.9%. Under setting [1], the AC50 was 29.1 µM [rising, single point].

In the case of `O=[N+]([O-])c1cc2oc3c(c2c(C=NCc2ccccc2)c1O)CCCC3`, the cell number change worked out at 60.7%. The AC50 under setting [1] was 29.1 µM [rising, single point].

Take `O=C(NCCc1nc2ccccc2[nH]1)c1ccc(Cl)c([N+](=O)[O-])c1`: the cell number change is -2.88%. Moreover, the AC50 under setting [2] is 29.1 µM [falling, single point].

`O=C(Nc1nnc(-c2ccc(Br)cc2)o1)c1ccco1`: the AC50 is 6.51 µM [falling, single point] under setting [1] and 0.116 µM [falling, full curve] under setting [2].

`COc1ccc(-c2nn3c(=O)c(C)nnc3s2)cc1`: the cell number change amounted to 36.6%. Further, the AC50 under setting [1] is 4.61 µM [rising, full curve, poor fit].

In the case of `COc1cc(Cl)c(C)cc1NC(=O)CSc1nnc(-c2ccccn2)n1Cc1ccco1`, the cell number change was -20.4%. Moreover, the AC50 under setting [2] is 1.16 µM [rising, full curve, poor fit].

On to `CCOc1c(C)cnc2c1c(=O)n(Cc1ccccc1F)c(=O)n2C`, for which the cell number change was -16.1%.

As for `N#CCCN(CCC#N)C(=O)C1c2ccccc2Oc2ccccc21`, the cell number change turned out to be 10.9%. Moreover, the AC50 under setting [2] is 8.2 µM [rising, partial curve].

With `CCN(Cc1ccccc1)C(=O)Cn1c(=O)n(CC(=O)NCc2ccco2)c(=O)c2sccc21`, the cell number change is -9.19%. Further, the AC50 under setting [2] is 6.51 µM [falling, single point].

Turning to `Cc1ccc(NC(=O)c2ccc3c(c2)N(CC(=O)N2CCCCC2)C(=O)C(C)(C)O3)cc1`, the cell number change amounted to 4.71%. For the same compound, the AC50 under setting [2] is 2.91 µM [rising, partial curve].

`O=C(Cc1ccc(F)cc1)Nc1nc(-c2ccc(F)c(F)c2)cs1`: the cell number change is 14.7%. Under setting [1], the AC50 is 0.00651 µM [rising, full curve, poor fit]. For the same compound, the AC50 under setting [2] was 29.1 µM [falling, single point].

Consider `CC(=O)c1ccc(N2C(=O)[C@@H]3C(CCC(N)=O)NC4(C(=O)Nc5c4ccc(Cl)c5C)[C@@H]3C2=O)cc1` (some centres not stated), for which the cell number change was found to be 31.5%. For the same compound, under setting [1], the AC50 is 5.8 µM [rising, full curve, poor fit].

On to `COc1ccc(NC(=O)C/C(C)=N/NC(=O)c2ccccn2)c(OC)c1`, for which the cell number change was 10.7%. Moreover, the AC50 under setting [2] is 6.51 µM [falling, single point].

For `COc1cc(NC(C(=O)Nc2cccc(C(C)=O)c2)c2ccccc2)cc(OC)c1OC` (configuration not stated), the cell number change is 16.7%. The AC50 under setting [2] is 18.4 µM [rising, partial curve, poor fit].

With `CCOc1ccc(-c2nnc(SCC(=O)N3CCCC3)o2)cc1`, the cell number change came out at 8.73%. Also, the AC50 under setting [1] is 0.92 µM [rising, full curve, poor fit].

For `CN1c2ccsc2/C(=N/Nc2ccccc2)CS1(=O)=O`, the cell number change is -31.4%. Besides, the AC50 under setting [1] was 18.4 µM [falling, single point].

For the compound `CCOc1cc(CNc2ccc3c(c2)CCC3)ccc1O`, the cell number change worked out at 35.3%. Further, the concentration at half-maximal activity (AC50) under setting [1] was 29.1 µM [rising, single point].

On to `COc1cc(C(=O)OCC(=O)Nc2c(F)cccc2F)cc(OC)c1C`, for which the cell number change came to 24.6%.

For `Cc1cc(C)c(OCC(=O)OCC(=O)NCC2CCCCC2)c(C)c1`, under setting [2], the AC50 is 25.9 µM [rising, single point].

Take `CN(Cc1ccccc1)C(=O)c1cc(=O)[nH]c2ccccc12`: the cell number change turned out to be 4.67%.

As for `CN(C)N1C(N)=C(C#N)C(c2ccc(F)cc2)C2=C1CCCC2=O` (configuration not stated), the cell number change turned out to be 23.6%.

For `CCOc1ccccc1C(=O)NCc1ccco1`, the cell number change came out at 5.51%. Moreover, the AC50 under setting [2] is 7.31 µM [rising, partial curve, poor fit].

On to `CC(C)c1nc(CNC(=O)C2CCC(=O)N(CCc3ccc(Cl)cc3)C2)no1` (configuration not stated), for which the cell number change was -12.9%. Also, under setting [1], the AC50 was 0.291 µM [rising, full curve, poor fit]. The AC50 under setting [2] was 29.1 µM [rising, single point].

`Cc1ccc(C(=O)Nc2sc(C)c(-c3ccccc3)c2C(N)=O)cc1[N+](=O)[O-]`: the cell number change was -0.521%.

For `CCOc1ccc(N2CC(C(=O)NCCc3ccc(F)cc3)CC2=O)cc1` (configuration not stated), the cell number change came out at 10.4%.

Regarding `O=C(NCCN1C(=O)S/C(=C\c2cccs2)C1=O)c1ccc(=O)[nH]c1`, the cell number change is -33.3%. For the same compound, the AC50 under setting [1] is 8.2 µM [falling, partial curve, poor fit].

Turning to `CCOc1ccccc1NC(=O)C1Cc2ccccc2CN1S(C)(=O)=O` (configuration not stated), the cell number change is 44.4%. Moreover, the AC50 under setting [1] is 20.6 µM [rising, single point]. Besides, the concentration at half-maximal activity (AC50) under setting [2] is 20.6 µM [rising, single point].

Regarding `COc1ccccc1CNC(=O)CCn1c(=O)oc2ccccc21`, the cell number change was -55%. In addition, the AC50 under setting [2] is 0.00517 µM [falling, full curve].

Take `COC(=O)C1C(c2ccc(Cl)cc2)NC(c2ccc(Cl)cc2)C(C(=O)OC)S1(=O)=O` (configuration not stated): the cell number change amounted to 171%. Further, the AC50 under setting [1] was 23.1 µM [rising, single point].

Consider `O=C(N/N=C/c1ccc(Cl)cc1Cl)c1ccc2nc[nH]c2c1`, for which the cell number change worked out at 25.1%. In addition, the AC50 under setting [2] is 0.231 µM [rising, full curve, poor fit].

As to `O=C(Nc1ccncc1)Nc1cccc(Cl)c1`, the cell number change was -43.1%. In addition, the half-maximal activity concentration (AC50) under setting [1] is 20.6 µM [falling, single point]. Moreover, the AC50 under setting [2] is 29.1 µM [rising, single point].

In the case of `O=C(c1cccc(N2CCCC2=O)c1)N1CCN(c2ccc(F)cc2)CC1`, the cell number change was -22.1%.

With `CCN(CC)c1ccc(/C=N/N2CCN(Cc3ccccc3)CC2)cc1`, the cell number change was -61.4%. For the same compound, the half-maximal activity concentration (AC50) under setting [1] was 29.1 µM [falling, single point]. Also, under setting [2], the AC50 is 16.4 µM [falling, single point].

Take `Cc1ccc(C2C(C#N)=C(N)N(c3cccnc3)C3=C2C(=O)CCC3)c(C)c1` (configuration not stated): under setting [1], the AC50 was 0.58 µM [rising, single point].

In the case of `COc1ccc(NC(C)=O)cc1S(=O)(=O)N1CCn2cccc2C1C` (configuration not stated), the cell number change was -3.63%. Further, under setting [2], the AC50 is 13 µM [rising, partial curve, poor fit].

For the compound `CCc1ccccc1NC(=O)CNCC(=O)Nc1ccccc1CC`, the cell number change was -27%. Moreover, the AC50 under setting [2] was 16.4 µM [falling, single point].

On to `COc1ccc(NC(=O)CN2CCN(CC(=O)Nc3ccc(F)cc3)CC2)c(OC)c1`, for which the AC50 under setting [2] was 29.1 µM [falling, single point].

Take `C=CCN1C(=O)C2(OCCCO2)c2cc(C)ccc21`: the cell number change was -4.99%.

Turning to `Cc1nnc(SCC(=O)NCc2ccc(F)cc2)[nH]c1=O`, the cell number change was -31.3%. For the same compound, the AC50 under setting [1] is 1.84 µM [falling, full curve, poor fit]. Also, the AC50 under setting [2] is 4.11 µM [falling, single point].

`CCOC(=O)C1=C(C)OC(N)=C(C#N)C1c1cc(Cl)c(OCC(N)=O)c(OC)c1` (configuration not stated): under setting [1], the AC50 was 5.17 µM [rising, single point].

For the compound `COc1cc(NC(=O)c2cccs2)c(OC)cc1NC(=O)c1ccco1`, the cell number change was determined as 27.6%. For the same compound, the AC50 under setting [1] was 2.59 µM [rising, full curve, poor fit].

With `COc1ccc(NC(=O)CN(C)S(=O)(=O)c2ccc3c(c2)CCCN3C(C)=O)cc1`, the AC50 under setting [2] was 0.103 µM [rising, full curve].

Take `CCNC(=S)NNC(=O)c1cc(-c2ccccc2C)nc2ccccc12`: the cell number change is -20.3%.

As for `C=CCOC(=O)C1=C(C)NC(SCC(=O)NC(=O)OCC)=C(C#N)C1c1cccnc1` (configuration not stated), the cell number change was 64.1%. In addition, the AC50 under setting [1] is 1.84 µM [rising, full curve]. In addition, the AC50 under setting [2] was 2.06 µM [rising, partial curve].

Consider `COc1cc(C(=O)N2CCC(NC(=O)C(Cc3ccc(C)cc3)NC(C)=O)CC2)cc(OC)c1OC` (configuration not stated), for which the cell number change was -99.7%. In addition, the AC50 under setting [1] is 23.1 µM [falling, partial curve, poor fit]. Also, the AC50 under setting [2] was 20.6 µM [falling, partial curve].

For `Cc1ccccc1C(=O)NCC(=O)OC(C)C(=O)NC(C)CCc1ccccc1` (configuration not stated), the cell number change is -0.275%. Further, the AC50 under setting [2] is 0.13 µM [rising, full curve, poor fit].

On to `COc1ccc(C(C)=O)cc1CSCCC#N`, for which the cell number change is -7.01%. Further, under setting [1], the AC50 is 1.16 µM [falling, full curve].

As for `Cc1ccc(CSc2nc3nc(C)cc(C)n3n2)cc1`, the cell number change was found to be 19.5%.

As for `Cc1ccc2[nH]c3c(=O)n(N)c(=O)[nH]c3c2c1`, the cell number change was -5.68%.

With `COc1ccc(NS(=O)(=O)c2cccc(C(=O)O)c2)cc1`, the cell number change is -81.9%. Besides, under setting [1], the AC50 was 13 µM [falling, partial curve]. In addition, under setting [2], the AC50 was 20.6 µM [falling, partial curve].

As to `COc1cccc(CNC(=O)C(=O)N2CCC3(CC2)OCCN3S(=O)(=O)c2ccc(C)cc2)c1`, under setting [2], the AC50 was 9.2 µM [rising, partial curve, poor fit].

As for `CNC(=O)c1ccc(NC(=O)CN2c3cccc4cccc(c34)S2(=O)=O)cc1`, the concentration at half-maximal activity (AC50) under setting [1] is 4.11 µM [rising, partial curve].

Turning to `C/C(=N\Nc1cc(N2CCOCC2)ncn1)c1ccc(O)cc1`, the cell number change is -25.9%. Further, under setting [2], the AC50 is 29.1 µM [falling, single point].

The values are drawn from PubChem BioAssay AID2685 (National Center for Advancing Translational Sciences (NCATS), 2010).
